No constants are given. Whether binding was seen depends on the method and setting. In cells and extracts the contact can be indirect. Some results given as binding are weak or reduced against the parent protein; the word gives no strength.
Assays:
hNotch1-ECD-V5 (human) = hNotch1-ECD-V5 (human) (UniProt P46531); experiment: co-IP; HEK293 cells transiently co-transfected with Notch1-ECD-V5 or Notch1-ICD-V5 and progranulin-Flag (human proteins; repeated with the mouse proteins); lysate supernatants; IP with anti-Flag or anti-V5 on Immunosorb A overnight at 4 °C; immunoblot with anti-V5 and anti-Flag
[1] = target: full-length non-tagged human progranulin (human) (UniProt P28799); experiment: co-IP; HEK293 cells transiently co-transfected with Flag-tagged human Notch receptors and non-tagged human progranulin; lysate supernatants; IP with anti-Flag or anti-progranulin (N19) on Immunosorb A overnight at 4 °C; beads washed 3x in lysis buffer; immunoblot with anti-Flag and anti-progranulin
[2] = target: Flag-tagged human Notch4 (human) (UniProt Q99466); experiment: as above
[3] = target: Flag-tagged human Notch1 (human) (UniProt P46531); experiment: as above
[4] = target: Flag-tagged human Notch2 (human) (UniProt Q04721); experiment: as above
[5] = target: Flag-tagged human Notch3 (human) (UniProt Q9UM47); experiment: as above
[6] = target: Flag-tagged full-length human progranulin (human) (UniProt P28799); experiment: co-IP; HEK293 cells transiently co-transfected with Notch1-ECD-V5 or Notch1-ICD-V5 and progranulin-Flag (human proteins; repeated with the mouse proteins); lysate supernatants; IP with anti-Flag or anti-V5 on Immunosorb A overnight at 4 °C; immunoblot with anti-V5 and anti-Flag

Sequences of proteins named here, by UniProt entry; tags and fusion partners are left off. A change or cut given only in a name is not applied to a line headed by its entry. Residues count along the entry.
UniProt P46531: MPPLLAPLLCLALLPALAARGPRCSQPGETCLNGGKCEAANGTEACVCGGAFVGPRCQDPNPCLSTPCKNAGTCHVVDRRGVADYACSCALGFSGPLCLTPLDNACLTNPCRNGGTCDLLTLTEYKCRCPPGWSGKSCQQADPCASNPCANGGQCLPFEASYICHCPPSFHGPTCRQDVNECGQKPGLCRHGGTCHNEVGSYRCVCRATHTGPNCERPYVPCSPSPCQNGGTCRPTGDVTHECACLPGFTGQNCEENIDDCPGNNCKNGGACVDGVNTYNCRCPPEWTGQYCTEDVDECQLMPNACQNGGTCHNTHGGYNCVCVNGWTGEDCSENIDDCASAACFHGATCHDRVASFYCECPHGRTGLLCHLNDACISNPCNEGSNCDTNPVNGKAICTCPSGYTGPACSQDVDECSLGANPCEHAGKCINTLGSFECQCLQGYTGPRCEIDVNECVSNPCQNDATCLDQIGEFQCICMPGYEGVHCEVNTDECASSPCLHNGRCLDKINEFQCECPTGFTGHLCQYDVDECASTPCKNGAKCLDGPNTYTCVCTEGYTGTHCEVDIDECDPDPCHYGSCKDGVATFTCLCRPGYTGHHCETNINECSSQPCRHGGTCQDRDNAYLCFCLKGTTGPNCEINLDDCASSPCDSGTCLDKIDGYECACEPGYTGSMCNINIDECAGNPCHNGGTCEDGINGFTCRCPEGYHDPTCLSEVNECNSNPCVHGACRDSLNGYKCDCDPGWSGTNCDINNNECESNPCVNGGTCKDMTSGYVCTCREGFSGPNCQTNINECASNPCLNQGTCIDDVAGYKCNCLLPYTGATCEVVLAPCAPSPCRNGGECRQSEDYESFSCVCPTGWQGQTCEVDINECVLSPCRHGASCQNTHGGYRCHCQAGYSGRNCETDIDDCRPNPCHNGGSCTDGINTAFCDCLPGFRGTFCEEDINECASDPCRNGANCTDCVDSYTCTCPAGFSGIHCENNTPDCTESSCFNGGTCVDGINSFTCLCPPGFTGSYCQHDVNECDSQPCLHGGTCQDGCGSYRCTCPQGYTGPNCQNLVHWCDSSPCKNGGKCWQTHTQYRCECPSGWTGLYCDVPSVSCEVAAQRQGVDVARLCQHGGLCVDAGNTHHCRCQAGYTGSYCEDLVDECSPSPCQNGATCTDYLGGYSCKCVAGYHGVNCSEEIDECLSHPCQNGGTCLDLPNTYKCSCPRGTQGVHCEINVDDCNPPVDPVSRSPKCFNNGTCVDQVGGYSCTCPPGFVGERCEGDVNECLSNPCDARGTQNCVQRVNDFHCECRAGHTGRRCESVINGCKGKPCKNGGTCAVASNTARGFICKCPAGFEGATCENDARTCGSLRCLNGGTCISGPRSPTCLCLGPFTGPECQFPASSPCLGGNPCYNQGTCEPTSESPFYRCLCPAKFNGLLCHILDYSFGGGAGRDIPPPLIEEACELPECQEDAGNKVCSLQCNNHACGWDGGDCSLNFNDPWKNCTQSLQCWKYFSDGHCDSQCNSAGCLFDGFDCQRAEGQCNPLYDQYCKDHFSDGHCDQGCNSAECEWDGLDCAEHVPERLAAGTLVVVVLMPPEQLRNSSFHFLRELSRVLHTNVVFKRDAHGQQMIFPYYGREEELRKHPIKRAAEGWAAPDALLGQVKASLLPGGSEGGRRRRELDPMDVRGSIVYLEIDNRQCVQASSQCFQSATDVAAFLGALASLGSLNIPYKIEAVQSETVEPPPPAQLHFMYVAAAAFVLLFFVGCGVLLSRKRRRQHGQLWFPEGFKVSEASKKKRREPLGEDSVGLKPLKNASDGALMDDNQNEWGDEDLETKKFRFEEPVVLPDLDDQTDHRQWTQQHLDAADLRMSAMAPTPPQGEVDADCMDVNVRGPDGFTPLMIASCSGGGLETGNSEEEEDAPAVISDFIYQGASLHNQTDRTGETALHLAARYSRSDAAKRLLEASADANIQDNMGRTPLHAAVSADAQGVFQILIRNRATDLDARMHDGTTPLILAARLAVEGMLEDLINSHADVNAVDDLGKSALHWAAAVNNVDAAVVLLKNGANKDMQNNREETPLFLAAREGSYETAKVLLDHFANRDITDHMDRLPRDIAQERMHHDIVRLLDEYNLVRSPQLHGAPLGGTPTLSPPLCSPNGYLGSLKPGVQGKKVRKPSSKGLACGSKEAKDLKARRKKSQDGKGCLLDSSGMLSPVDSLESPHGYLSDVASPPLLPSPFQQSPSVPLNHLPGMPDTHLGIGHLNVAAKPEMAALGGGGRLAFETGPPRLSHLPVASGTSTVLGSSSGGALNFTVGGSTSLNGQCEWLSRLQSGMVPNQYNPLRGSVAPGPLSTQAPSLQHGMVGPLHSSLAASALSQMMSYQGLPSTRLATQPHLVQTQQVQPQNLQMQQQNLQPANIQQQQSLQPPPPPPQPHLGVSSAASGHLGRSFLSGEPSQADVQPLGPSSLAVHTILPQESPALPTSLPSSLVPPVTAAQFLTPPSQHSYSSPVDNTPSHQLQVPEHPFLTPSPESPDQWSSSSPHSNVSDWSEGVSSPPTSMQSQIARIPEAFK
UniProt P28799, residues 18-593: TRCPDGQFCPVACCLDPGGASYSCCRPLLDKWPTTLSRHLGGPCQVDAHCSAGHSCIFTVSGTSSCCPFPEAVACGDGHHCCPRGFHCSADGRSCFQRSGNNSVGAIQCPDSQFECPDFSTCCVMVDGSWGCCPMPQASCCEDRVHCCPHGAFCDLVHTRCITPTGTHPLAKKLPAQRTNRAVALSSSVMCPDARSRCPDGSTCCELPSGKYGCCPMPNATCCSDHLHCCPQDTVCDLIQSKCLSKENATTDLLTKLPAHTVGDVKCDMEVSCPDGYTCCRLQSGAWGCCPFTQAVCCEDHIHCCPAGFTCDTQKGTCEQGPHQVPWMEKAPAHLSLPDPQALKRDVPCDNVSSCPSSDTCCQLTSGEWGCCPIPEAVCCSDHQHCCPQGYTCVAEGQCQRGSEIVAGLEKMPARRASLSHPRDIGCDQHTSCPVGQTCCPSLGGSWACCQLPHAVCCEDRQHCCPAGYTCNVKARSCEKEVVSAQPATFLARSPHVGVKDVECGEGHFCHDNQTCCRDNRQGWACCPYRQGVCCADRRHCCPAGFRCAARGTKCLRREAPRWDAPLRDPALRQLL
UniProt Q04721, residues 26-2471: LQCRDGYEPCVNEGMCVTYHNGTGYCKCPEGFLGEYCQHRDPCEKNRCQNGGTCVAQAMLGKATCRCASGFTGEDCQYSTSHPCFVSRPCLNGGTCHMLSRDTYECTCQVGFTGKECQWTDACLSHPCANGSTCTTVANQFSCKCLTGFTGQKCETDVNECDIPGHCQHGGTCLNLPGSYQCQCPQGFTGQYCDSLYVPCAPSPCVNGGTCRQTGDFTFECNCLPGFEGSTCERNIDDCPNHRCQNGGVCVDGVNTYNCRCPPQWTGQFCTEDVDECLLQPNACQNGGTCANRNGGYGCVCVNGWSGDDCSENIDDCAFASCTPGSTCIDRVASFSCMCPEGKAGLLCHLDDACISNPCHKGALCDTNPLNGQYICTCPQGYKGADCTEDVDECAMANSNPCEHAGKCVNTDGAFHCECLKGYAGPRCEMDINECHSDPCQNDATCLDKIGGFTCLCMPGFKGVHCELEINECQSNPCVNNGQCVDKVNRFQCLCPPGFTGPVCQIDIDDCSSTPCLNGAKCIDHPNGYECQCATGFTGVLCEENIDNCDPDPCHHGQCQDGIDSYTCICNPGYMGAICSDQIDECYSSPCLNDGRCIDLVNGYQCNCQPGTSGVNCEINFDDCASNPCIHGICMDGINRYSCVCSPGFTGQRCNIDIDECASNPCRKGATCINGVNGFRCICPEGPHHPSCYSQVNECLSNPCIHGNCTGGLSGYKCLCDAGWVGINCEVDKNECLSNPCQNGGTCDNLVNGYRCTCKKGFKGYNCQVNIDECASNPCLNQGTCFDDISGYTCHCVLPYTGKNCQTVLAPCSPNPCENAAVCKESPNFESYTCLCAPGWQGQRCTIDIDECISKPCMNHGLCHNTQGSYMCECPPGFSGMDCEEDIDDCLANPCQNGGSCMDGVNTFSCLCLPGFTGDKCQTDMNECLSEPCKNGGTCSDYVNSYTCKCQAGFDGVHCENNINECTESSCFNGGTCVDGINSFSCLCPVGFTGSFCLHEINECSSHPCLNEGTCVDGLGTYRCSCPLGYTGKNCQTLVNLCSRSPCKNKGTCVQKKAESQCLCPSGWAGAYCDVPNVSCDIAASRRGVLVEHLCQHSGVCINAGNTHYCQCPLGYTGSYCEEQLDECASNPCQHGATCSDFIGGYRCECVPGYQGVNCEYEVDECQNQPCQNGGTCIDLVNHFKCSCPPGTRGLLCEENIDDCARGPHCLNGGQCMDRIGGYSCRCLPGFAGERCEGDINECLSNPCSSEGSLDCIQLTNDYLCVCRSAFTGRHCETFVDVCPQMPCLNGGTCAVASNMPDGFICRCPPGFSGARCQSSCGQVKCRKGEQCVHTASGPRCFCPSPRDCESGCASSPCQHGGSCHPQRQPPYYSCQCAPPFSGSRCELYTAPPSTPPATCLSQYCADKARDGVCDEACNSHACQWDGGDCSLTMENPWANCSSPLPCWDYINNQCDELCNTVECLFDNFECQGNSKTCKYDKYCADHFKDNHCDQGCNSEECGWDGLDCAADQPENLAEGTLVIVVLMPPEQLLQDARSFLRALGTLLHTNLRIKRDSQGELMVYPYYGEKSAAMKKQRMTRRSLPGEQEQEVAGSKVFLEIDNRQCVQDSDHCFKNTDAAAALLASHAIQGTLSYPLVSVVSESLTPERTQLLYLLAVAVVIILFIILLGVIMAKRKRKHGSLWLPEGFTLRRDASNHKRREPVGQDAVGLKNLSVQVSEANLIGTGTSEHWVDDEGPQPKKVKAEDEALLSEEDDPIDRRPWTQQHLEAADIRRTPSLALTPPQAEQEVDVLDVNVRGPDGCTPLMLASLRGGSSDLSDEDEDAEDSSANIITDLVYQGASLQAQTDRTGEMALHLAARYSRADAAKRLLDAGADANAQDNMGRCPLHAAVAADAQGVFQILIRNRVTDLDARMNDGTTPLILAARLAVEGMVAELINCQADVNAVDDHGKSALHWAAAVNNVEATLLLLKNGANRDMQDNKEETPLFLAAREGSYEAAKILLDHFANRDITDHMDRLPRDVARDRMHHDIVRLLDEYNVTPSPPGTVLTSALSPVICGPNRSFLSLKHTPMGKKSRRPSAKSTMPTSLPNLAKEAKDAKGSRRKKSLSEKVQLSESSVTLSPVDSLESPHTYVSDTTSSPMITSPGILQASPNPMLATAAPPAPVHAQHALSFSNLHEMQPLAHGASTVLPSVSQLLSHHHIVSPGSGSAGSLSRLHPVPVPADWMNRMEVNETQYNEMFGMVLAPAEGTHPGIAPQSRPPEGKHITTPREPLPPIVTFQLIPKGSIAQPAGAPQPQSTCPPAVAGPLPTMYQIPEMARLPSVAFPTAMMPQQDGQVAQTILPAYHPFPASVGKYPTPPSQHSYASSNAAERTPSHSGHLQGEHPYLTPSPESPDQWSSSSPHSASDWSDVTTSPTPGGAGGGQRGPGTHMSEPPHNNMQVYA

## Flag-tagged full-length human progranulin (from UniProt P28799 18-593)
hNotch1-ECD-V5 (human)
  binding: binds

## Flag-tagged human Notch1 (from UniProt P46531 19-2555) (receptor)
[1]
  binding: binds

## Flag-tagged human Notch2 (from UniProt Q04721 26-2471) (receptor)
[1]
  binding: binds

## Flag-tagged human Notch3 (from UniProt Q9UM47 40-2321) (receptor)
[1]
  binding: binds

## Flag-tagged human Notch4 (from UniProt Q99466 24-2003) (receptor)
[1]
  binding: binds

## full-length non-tagged human progranulin (from UniProt P28799 18-593)
[2]
  binding: binds
[3]
  binding: binds
[4]
  binding: binds
[5]
  binding: binds

## hNotch1-ECD-V5 (from UniProt P46531 19-1735) (domain or fragment)
[6]
  binding: binds
